Test results as given in the supplement of paper PMC10849652.
The list shows a part of the results.

Amino acid sequences for entries named in this document (tags omitted). A change or cut given only in a name is not applied to a line headed by its entry.
UniProt Q9UBP6: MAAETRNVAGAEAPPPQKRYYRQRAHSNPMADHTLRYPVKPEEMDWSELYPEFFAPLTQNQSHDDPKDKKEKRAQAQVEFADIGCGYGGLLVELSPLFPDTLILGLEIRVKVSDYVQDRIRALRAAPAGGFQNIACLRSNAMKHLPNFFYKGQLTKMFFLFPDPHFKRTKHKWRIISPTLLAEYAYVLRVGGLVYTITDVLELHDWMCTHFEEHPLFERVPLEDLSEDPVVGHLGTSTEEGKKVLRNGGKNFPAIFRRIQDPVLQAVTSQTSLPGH
UniProt P48163: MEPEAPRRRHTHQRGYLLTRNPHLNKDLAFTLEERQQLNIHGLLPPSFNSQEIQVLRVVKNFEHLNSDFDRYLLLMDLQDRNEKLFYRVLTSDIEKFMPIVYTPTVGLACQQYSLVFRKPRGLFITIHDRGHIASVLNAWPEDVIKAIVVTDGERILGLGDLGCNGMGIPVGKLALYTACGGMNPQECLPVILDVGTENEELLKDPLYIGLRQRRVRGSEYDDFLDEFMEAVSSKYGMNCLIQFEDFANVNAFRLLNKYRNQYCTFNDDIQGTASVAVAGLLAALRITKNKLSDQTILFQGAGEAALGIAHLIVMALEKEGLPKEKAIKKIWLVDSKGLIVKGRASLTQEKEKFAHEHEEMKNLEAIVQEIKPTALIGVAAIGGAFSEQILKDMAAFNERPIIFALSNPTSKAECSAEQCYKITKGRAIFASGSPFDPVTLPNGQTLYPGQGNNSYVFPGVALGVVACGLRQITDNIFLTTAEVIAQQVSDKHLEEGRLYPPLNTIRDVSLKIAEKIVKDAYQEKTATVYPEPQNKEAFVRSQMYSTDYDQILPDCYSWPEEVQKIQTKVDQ
UniProt Q14696: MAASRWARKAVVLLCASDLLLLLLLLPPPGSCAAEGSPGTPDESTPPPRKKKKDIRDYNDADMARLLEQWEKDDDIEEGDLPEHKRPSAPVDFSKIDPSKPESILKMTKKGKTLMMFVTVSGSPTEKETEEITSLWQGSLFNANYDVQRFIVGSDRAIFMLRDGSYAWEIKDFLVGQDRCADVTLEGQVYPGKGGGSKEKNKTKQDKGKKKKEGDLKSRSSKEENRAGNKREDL
UniProt Q68D91: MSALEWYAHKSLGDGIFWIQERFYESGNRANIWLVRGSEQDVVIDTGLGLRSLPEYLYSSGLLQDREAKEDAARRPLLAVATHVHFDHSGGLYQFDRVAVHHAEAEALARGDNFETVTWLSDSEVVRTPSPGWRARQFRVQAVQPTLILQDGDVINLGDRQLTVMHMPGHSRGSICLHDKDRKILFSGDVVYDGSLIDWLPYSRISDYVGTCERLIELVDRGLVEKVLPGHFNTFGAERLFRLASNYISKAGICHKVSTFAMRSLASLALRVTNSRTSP
UniProt Q9ULK4: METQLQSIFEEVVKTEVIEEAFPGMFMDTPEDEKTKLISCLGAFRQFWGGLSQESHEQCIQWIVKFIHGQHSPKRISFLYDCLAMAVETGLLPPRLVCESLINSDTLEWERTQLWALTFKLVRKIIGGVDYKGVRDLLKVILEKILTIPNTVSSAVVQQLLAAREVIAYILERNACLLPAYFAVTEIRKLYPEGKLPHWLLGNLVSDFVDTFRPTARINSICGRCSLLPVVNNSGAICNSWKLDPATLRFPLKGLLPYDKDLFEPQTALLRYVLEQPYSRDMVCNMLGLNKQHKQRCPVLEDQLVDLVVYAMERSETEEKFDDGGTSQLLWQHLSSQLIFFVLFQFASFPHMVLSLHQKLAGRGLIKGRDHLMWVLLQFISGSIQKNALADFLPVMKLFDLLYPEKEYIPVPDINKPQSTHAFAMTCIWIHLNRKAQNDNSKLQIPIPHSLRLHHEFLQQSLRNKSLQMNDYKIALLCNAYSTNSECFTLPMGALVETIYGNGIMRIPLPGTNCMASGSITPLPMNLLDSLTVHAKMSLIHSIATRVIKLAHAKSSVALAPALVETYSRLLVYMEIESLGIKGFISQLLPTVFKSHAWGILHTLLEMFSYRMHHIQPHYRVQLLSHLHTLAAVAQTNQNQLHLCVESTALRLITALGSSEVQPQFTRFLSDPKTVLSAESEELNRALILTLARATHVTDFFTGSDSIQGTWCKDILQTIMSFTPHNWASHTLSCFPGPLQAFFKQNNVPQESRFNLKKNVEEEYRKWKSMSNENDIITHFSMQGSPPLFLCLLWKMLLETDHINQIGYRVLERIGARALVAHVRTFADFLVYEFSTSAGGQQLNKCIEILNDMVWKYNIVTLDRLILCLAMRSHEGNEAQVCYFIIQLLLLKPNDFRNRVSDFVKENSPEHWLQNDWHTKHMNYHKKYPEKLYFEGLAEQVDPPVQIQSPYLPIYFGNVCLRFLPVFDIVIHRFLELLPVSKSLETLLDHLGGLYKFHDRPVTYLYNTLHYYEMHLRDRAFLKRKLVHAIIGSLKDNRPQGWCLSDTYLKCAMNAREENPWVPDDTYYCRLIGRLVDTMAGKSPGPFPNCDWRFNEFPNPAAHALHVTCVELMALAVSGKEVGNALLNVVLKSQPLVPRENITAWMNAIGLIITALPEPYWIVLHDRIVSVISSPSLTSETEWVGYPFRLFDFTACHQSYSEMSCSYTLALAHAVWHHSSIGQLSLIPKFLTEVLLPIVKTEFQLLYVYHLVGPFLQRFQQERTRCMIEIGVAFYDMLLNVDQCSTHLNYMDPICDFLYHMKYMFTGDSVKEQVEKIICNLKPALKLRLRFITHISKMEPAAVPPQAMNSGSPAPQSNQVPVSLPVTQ
UniProt Q9NR56: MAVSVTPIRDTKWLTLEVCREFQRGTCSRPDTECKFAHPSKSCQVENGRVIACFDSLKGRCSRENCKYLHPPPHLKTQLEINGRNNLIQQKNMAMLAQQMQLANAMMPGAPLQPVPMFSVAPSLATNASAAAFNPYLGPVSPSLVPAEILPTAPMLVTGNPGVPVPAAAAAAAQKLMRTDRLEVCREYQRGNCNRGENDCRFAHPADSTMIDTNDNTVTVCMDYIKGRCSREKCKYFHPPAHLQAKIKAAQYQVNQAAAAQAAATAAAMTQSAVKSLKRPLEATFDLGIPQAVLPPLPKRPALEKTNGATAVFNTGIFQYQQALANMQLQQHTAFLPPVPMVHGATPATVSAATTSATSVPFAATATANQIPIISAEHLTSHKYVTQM
UniProt Q86U44, whole entry, looked up: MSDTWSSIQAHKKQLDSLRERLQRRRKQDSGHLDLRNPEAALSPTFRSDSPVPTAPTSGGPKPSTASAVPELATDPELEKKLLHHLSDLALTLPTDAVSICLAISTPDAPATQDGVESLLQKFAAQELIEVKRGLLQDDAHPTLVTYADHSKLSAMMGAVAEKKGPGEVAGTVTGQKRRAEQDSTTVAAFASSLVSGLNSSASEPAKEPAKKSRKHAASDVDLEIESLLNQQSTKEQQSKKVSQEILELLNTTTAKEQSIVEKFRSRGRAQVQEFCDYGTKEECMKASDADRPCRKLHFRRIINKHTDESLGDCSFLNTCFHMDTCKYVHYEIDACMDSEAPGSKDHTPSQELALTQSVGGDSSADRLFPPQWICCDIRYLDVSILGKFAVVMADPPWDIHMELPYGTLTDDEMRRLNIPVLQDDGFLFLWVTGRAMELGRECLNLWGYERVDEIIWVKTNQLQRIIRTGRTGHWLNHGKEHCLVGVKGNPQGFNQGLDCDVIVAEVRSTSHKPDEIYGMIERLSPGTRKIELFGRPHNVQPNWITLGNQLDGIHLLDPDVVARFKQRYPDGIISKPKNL
UniProt Q8IVS2: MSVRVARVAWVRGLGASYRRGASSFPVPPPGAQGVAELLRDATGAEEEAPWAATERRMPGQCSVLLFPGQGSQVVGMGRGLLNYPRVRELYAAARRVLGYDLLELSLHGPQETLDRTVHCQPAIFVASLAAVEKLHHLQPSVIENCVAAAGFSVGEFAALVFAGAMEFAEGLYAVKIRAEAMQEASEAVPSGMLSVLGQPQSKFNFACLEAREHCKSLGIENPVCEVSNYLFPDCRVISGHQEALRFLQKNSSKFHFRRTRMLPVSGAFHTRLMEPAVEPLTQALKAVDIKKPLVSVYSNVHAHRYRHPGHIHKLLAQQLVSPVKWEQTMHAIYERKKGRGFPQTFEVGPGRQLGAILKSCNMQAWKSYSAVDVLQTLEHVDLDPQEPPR
UniProt Q9UQ53: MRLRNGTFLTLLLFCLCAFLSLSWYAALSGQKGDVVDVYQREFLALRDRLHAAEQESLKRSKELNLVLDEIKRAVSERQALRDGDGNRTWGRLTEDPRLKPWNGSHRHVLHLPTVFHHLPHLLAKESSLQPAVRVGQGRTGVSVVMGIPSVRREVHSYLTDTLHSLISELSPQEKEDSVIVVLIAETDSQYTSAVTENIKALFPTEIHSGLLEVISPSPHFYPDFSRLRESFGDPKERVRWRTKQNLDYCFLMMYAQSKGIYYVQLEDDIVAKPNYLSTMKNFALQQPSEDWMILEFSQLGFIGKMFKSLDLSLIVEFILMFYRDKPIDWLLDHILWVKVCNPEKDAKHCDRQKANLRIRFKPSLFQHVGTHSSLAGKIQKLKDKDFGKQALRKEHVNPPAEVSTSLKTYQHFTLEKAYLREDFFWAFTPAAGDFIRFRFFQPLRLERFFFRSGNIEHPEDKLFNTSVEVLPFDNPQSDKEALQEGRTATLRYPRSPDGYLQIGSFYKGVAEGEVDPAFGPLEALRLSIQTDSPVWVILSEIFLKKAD
UniProt Q9NRN9: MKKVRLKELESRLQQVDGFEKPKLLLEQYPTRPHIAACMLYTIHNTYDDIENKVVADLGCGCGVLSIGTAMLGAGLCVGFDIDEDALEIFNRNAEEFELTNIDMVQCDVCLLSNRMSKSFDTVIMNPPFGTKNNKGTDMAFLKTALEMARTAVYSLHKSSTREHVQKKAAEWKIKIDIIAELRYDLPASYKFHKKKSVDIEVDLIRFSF
UniProt Q06413, whole entry, looked up: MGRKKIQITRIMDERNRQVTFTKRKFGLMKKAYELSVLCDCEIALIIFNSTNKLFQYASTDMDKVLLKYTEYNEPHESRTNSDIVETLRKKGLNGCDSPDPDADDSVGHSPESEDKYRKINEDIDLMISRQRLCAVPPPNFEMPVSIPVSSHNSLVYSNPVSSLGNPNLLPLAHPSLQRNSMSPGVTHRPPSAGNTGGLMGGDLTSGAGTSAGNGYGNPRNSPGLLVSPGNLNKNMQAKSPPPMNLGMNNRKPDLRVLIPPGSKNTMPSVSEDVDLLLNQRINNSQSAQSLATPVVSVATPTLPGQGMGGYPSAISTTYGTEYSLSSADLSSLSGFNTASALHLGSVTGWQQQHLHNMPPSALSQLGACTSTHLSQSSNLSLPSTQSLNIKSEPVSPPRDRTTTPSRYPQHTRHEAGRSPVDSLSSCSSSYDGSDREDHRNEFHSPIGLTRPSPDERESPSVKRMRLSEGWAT
UniProt Q96PE7: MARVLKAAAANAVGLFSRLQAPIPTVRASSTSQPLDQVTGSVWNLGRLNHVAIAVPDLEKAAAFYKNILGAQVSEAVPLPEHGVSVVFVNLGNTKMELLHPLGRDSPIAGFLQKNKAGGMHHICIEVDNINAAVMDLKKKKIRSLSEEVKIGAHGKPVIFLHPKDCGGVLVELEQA
UniProt Q9H8H3: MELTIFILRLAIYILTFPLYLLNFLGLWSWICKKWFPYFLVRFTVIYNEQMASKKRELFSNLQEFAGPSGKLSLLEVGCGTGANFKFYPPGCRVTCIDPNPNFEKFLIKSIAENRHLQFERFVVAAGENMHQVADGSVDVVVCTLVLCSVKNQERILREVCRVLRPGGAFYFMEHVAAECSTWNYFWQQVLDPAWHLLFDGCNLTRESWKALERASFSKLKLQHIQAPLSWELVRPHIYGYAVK
UniProt Q96RQ3: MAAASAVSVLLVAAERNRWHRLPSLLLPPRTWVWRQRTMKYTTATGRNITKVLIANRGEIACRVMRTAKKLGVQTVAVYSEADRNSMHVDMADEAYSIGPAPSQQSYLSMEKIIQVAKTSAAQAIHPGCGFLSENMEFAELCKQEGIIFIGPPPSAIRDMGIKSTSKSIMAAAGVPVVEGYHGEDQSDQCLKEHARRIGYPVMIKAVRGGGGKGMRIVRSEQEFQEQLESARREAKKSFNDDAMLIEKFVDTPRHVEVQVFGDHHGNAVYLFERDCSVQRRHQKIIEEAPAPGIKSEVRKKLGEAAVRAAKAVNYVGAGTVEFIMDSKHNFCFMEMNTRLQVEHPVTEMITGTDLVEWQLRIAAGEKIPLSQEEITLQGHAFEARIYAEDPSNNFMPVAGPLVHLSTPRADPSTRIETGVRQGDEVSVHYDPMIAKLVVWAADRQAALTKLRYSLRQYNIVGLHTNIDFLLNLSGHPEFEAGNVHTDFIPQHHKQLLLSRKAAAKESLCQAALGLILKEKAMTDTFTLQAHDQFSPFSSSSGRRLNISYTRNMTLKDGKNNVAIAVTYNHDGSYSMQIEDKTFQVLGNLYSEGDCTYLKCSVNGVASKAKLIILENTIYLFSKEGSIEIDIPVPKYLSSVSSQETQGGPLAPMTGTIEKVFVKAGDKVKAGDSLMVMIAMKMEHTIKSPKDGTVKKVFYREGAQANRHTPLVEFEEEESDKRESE

What was measured:
Test in all cases: log2 fold change, soluble protein after heating vs DMSO (PISA); higher = thermal stabilisation; K562 cells, 10 uM, 30 min; active = over 0.2 and 3.5 SD of the protein, either way, in both replicates (recomputed)
[1] = compound: CC[C@@H]1C(=O)N(C)c2cnc(Nc3ccc(C(=O)NC4CCN(C)CC4)cc3OC)nc2N1C1CCCC1
In short: (§1)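 K562 cells at 2×10^6 cells/mL were given 10 μM compound for 30 min. Aliquots then went through 3 min of heating across 48°C-58°C, were pooled, and were extracted in PBS with 0.5% NP-40 at 4°C, and the supernatant after 21,000xg for 90 min was quantified by TMTpro 16plex LC-MS/MS with channel sums equalised. Thermal stability relative to control samples, from duplicates, is given as log2 fold change.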

[2] = compound: CC[C@@H]1C(=O)N(C)c2cnc(Nc3ccc(C(=O)N[C@H]4CC[C@H](N5CCN(CC6CC6)CC5)CC4)cc3OC)nc2N1C(C)C [volasertib]
In short: as §1

[3] = compound: CC[C@H](C)N1C=C(C2=C(C=C(C=C21)C3=CN=C(C=C3)N4CCNCC4)C(=O)NCC5=C(C=C(NC5=O)C)C)C
In short: as §1

[4] = compound: CC[C@H](C)[C@@H](C(=O)N[C@@H]([C@@H](C)O)C(=O)N[C@@H](CC(C)C)C(=O)[C@]1(CO1)C)NC(=O)[C@H]([C@@H](C)CC)N(C)C(=O)C [epoxomicin]
In short: as §1

[5] = compound: CCn1c(C(=O)N(C2CC2)C2CC2)cc2c3c(ncn3C)c(Nc3cc(C)n(C)n3)nc21
In short: as §1

[6] = compound: CCn1cc(-c2ccnc3[nH]c(-c4cccc(CN(C)C)c4)cc23)c(-c2ccc(NC(=O)N(C)C)cc2)n1
In short: as §1

[7] = compound: CN(C)CC(=O)Nc1ccc2[nH]c(=O)c3ccccc3c2c1
In short: as §1

[8] = compound: CN(CCOC1=CC=C(C=C1)C[C@H]2C(=O)NC(=O)S2)C3=CC=CC=N3 (racemic) [rosiglitazone]
In short: as §1

[9] = compound: CN1C2=C(C3=C1C(=O)N(N=C3)CC4=CC(=CC=C4)N)SC(=C2)S(=O)C
In short: as §1

[10] = compound: CN1CCC(CNc2ccc3ncc(-c4cccc(OC(F)(F)F)c4)n3n2)CC1
In short: as §1

[11] = compound: CN1CCN(CCOc2cc(OC3CCOCC3)c3c(Nc4c(Cl)ccc5c4OCO5)ncnc3c2)CC1 [saracatinib]
In short: as §1

[12] = compound: CN1CCN(c2nc(C3=C(c4c[nH]c5ccccc45)C(=O)NC3=O)c3ccccc3n2)CC1 [sotrastaurin]
In short: as §1

[13] = compound: CN1CC[C@H](c2c(O)cc(O)c3c(=O)cc(-c4ccccc4Cl)oc23)[C@H](O)C1 [alvocidib]
In short: as §1

[14] = compound: CN1CCc2c(c3ccccc3n2Cc2ccc(C(=O)NO)cc2)C1 [Tubastatin A]
In short: as §1

[15] = compound: CNC(=O)C1=CC=CC=C1NC2=NC(=NC=C2Cl)NC3=C(C=C(C=C3)N4CCOCC4)OC
In short: as §1

[16] = compound: CNC(=O)c1ccc(Nc2ncc(C(F)(F)F)c(NCc3nccnc3N(C)S(C)(=O)=O)n2)cc1 [defactinib]
In short: as §1

[17] = compound: CNCc1ccc(-c2[nH]c3cc(F)cc4c3c2CCNC4=O)cc1 [rucaparib]
In short: as §1

[18] = compound: CNc1nc(-c2ccc3c(N)n[nH]c3c2)cc(N2C[C@@H](C(=O)NC3CCCCC3)CC[C@H]2C)n1
In short: as §1

[19] = compound: COC(=O)N[C@@H](C)CNc1nccc(-c2cn(C(C)C)nc2-c2cc(Cl)cc(NS(C)(=O)=O)c2F)n1 [encorafenib]
In short: as §1

[20] = compound: COC(=O)[C@H](CCSC)NC(=O)C1=C(C=C(C=C1)NC[C@H](CS)N)C2=CC=CC=C2
In short: as §1

Measured: log2 fold change

METTL1 (UniProt Q9UBP6)
inactive: [1] -0.003 | [2] 0.024 | [3] 0.017 | [4] 0.093 | [5] 0.015 | [6] -0.001 | [7] 0.029 | [8] -0.001 | [9] -0.101 | [10] -0.033 | [11] 0.019 | [12] 0.012 | [13] -0.022 | [14] -0.058 | [15] -0.032 | [16] -0.102 | [17] 0.015 | [18] 0.023 | [19] 0 | [20] -0.042

ME1 (UniProt P48163)
inactive: [1] 0.083 | [2] 0.032 | [3] -0.03 | [4] 0.016 | [5] 0.019 | [6] -0.009 | [7] 0.009 | [8] 0.002 | [9] -0.063 | [10] -0.054 | [11] 0.012 | [12] 0.024 | [13] -0.029 | [14] -0.02 | [15] -0.028 | [16] 0.001 | [17] -0.085 | [18] -0.041 | [19] -0.001 | [20] 0.013

MESD (UniProt Q14696)
inactive: [1] 0.025 | [2] 0.01 | [3] -0.003 | [4] 0 | [5] 0.028 | [6] 0.01 | [7] -0.023 | [8] 0.007 | [9] 0.003 | [10] 0.045 | [11] 0.024 | [12] 0.021 | [13] 0.042 | [14] -0.032 | [15] -0.018 | [16] 0.013 | [17] -0.012 | [18] -0.033 | [19] -0.005 | [20] 0.016

MBLAC2 (UniProt Q68D91)
inactive: [1] 0.05 | [2] 0.034 | [3] -0.064 | [4] -0.039 | [5] 0.021 | [6] -0.043 | [7] -0.034 | [8] -0.022 | [9] -0.027 | [10] 0.115 | [11] 0.048 | [12] 0.045 | [13] -0.028 | [14] 0.044 | [15] -0.043 | [16] -0.018 | [17] -0.037 | [18] -0.036 | [19] -0.043 | [20] 0.031

MED23 (UniProt Q9ULK4)
inactive: [1] 0.037 | [2] 0.016 | [3] 0.087 | [4] 0.039 | [5] -0.038 | [6] 0.007 | [7] 0.078 | [8] 0.025 | [9] 0.014 | [10] -0.037 | [11] 0.012 | [12] -0.098 | [13] -0.138 | [14] -0.019 | [15] 0.009 | [16] -0.013 | [17] -0.006 | [18] -0.058 | [19] 0.114 | [20] -0.048

MBNL1 (UniProt Q9NR56)
inactive: [1] 0.014 | [2] 0.028 | [3] -0.016 | [4] 0.006 | [5] 0.005 | [6] -0.011 | [7] -0.123 | [8] -0.047 | [9] 0.026 | [10] -0.007 | [11] 0.077 | [12] 0.02 | [13] 0.098 | [14] -0.105 | [15] 0.003 | [16] 0.112 | [17] 0.061 | [18] -0.082 | [19] -0.019 | [20] 0.105

METTL3 (UniProt Q86U44)
inactive: [1] 0.014 | [2] -0.031 | [3] 0.049 | [4] 0.045 | [5] -0.002 | [6] -0.088 | [7] 0.005 | [8] 0.008 | [9] -0.037 | [10] -0.013 | [11] 0.025 | [12] 0.02 | [13] -0.02 | [14] -0.001 | [15] -0.009 | [16] -0.053 | [17] -0.033 | [18] 0.017 | [19] -0.022 | [20] -0.029

MCAT (UniProt Q8IVS2)
inactive: [1] 0.08 | [2] 0.112 | [3] 0.017 | [4] -0.075 | [5] -0.031 | [6] 0.032 | [7] -0.072 | [8] -0.049 | [9] 0.051 | [10] 0.215 | [11] 0.009 | [12] -0.012 | [13] 0.032 | [14] 0.026 | [15] 0.14 | [16] 0.086 | [17] 0.134 | [18] 0.003 | [19] 0.015 | [20] -0.002

MGAT4B isoform 3 (UniProt Q9UQ53)
inactive: [1] -0.02 | [2] -0.015 | [3] 0.046 | [4] 0.039 | [5] 0.007 | [6] 0.178 | [7] 0.049 | [8] 0.062 | [9] 0.006 | [10] -0.341 | [11] -0.051 | [12] 0.034 | [13] 0.066 | [14] -0.117 | [15] -0.017 | [16] -0.012 | [17] -0.04 | [18] 0.052 | [19] 0.039 | [20] -0.054

Two entries picked at random from those above:
MBNL1 (UniProt Q9NR56)
inactive: [1] 0.014 | [2] 0.028 | [3] -0.016 | [4] 0.006 | [5] 0.005 | [6] -0.011 | [7] -0.123 | [8] -0.047 | [9] 0.026 | [10] -0.007 | [11] 0.077 | [12] 0.02 | [13] 0.098 | [14] -0.105 | [15] 0.003 | [16] 0.112 | [17] 0.061 | [18] -0.082 | [19] -0.019 | [20] 0.105

METTL3 (UniProt Q86U44)
inactive: [1] 0.014 | [2] -0.031 | [3] 0.049 | [4] 0.045 | [5] -0.002 | [6] -0.088 | [7] 0.005 | [8] 0.008 | [9] -0.037 | [10] -0.013 | [11] 0.025 | [12] 0.02 | [13] -0.02 | [14] -0.001 | [15] -0.009 | [16] -0.053 | [17] -0.033 | [18] 0.017 | [19] -0.022 | [20] -0.029

Additional records follow:

METTL16 (UniProt Q86W50)
inactive: [1] -0.034 | [2] -0.14 | [3] 0.02 | [4] 0.032 | [5] -0.005 | [6] 0.021 | [7] 0.016 | [8] -0.003 | [9] -0.046 | [10] -0.081 | [11] 0.065 | [12] -0.052 | [13] -0.156 | [14] -0.005 | [15] 0.007 | [16] -0.154 | [17] 0.01 | [18] -0.086 | [19] 0.024 | [20] 0.008

METTL5 (UniProt Q9NRN9)
inactive: [1] 0.009 | [2] 0.046 | [3] -0.032 | [4] 0 | [5] 0.035 | [6] 0.003 | [7] 0.003 | [8] 0.008 | [9] -0.053 | [10] -0.014 | [11] 0.086 | [12] 0.045 | [13] -0.007 | [14] -0.013 | [15] -0.041 | [16] -0.034 | [17] -0.028 | [18] -0.006 | [19] -0.026 | [20] 0.005

MEF2C isoform 5 (UniProt Q06413)
inactive: [1] -0.074 | [2] -0.138 | [3] 0.065 | [4] -0.066 | [5] -0.034 | [6] -0.055 | [7] -0.07 | [8] -0.046 | [9] 0.19 | [10] -0.082 | [11] 0.268 | [12] 0.111 | [13] 0.072 | [14] -0.057 | [15] 0.041 | [16] -0.035 | [17] -0.084 | [18] -0.021 | [19] 0.031 | [20] 0.177

MCEE (UniProt Q96PE7)
inactive: [1] 0 | [2] 0.02 | [3] -0.026 | [4] 0.096 | [5] 0.106 | [6] 0 | [7] 0.028 | [8] 0.025 | [9] -0.047 | [10] 0.05 | [11] 0.103 | [12] 0.056 | [13] -0.001 | [14] 0.029 | [15] -0.008 | [16] -0.162 | [17] 0.02 | [18] 0.032 | [19] -0.049 | [20] 0.057

METTL7A (UniProt Q9H8H3)
inactive: [1] 0.013 | [2] 0.04 | [3] -0.012 | [4] -0.006 | [5] 0 | [6] -0.019 | [7] 0.046 | [8] 0.017 | [9] -0.038 | [10] -0.033 | [11] -0.018 | [12] 0.054 | [13] -0.055 | [14] -0.055 | [15] 0.073 | [16] -0.013 | [17] 0.016 | [18] -0.023 | [19] -0.022 | [20] 0.01

MCCC1 (UniProt Q96RQ3)
inactive: [1] -0.014 | [2] 0.025 | [3] 0.044 | [4] 0.032 | [5] -0.038 | [6] -0.048 | [7] 0.034 | [8] 0.09 | [9] -0.063 | [10] -0.048 | [11] -0.014 | [12] 0.004 | [13] -0.1 | [14] 0.019 | [15] 0.051 | [16] -0.027 | [17] -0.042 | [18] 0.074 | [19] 0.008 | [20] -0.037

MCRIP1 (UniProt I3L4Q0)
inactive: [1] 0.012 | [2] 0.024 | [3] -0.066 | [4] -0.04 | [5] 0.011 | [6] 0.002 | [7] -0.068 | [8] -0.019 | [9] 0.02 | [10] -0.067 | [11] 0.005 | [12] 0.039 | [13] -0.012 | [14] 0.016 | [15] -0.022 | [16] -0.024 | [17] 0.004 | [18] -0.107 | [19] -0.009 | [20] -0.012
